Results from patent publication US9963451B2, “Fused ring pyrimidine compound and pest control agent containing the same” (Mitsui Chemicals Agro, Inc., priority 2013, dated 2018).
Some entries share one result that the patent states for a list of compounds.

Columns and labels:
Laodelphax striatellus = assay: Test Example 1: insecticidal test against Laodelphax striatellus (root immersion and leaf spray of young rice plant); type: in vivo; conditions: 100 ppm root immersion and 1000 ppm leaf spray, 25° C., after 6 days
Myzus persicae = assay: Test Example 2: insecticidal test against Myzus persicae (root immersion and leaf spray of young white radish plant); type: in vivo; conditions: 100 ppm root immersion and 1000 ppm leaf spray, 1-stage larvae, 25° C., after 5 days

## Cc1cc(=O)n2nc([S+]([O-])C(C)C)cc2n1Cc1ccc(Cl)nc1 (stereo not drawn) [compound 256]
Laodelphax striatellus
  insect death ratio: ≥ 70%
Myzus persicae
  insect death ratio: ≥ 70%

## CC[S+]([O-])c1cc2n(Cc3ccc(Cl)nc3)c(C)cc(=O)n2n1 (stereo not drawn) [compound 244]
Laodelphax striatellus
  insect death ratio: ≥ 70%
Myzus persicae
  insect death ratio: ≥ 70%

## CSc1nc2n(Cc3cnc(C)c(C)c3)c(C)cc(=O)n2n1 [compound 305]
Laodelphax striatellus
  insect death ratio: ≥ 70%
Myzus persicae
  insect death ratio: ≥ 70%

## CSc1nc2n(C(C)c3ccc(Cl)nc3)c(C)cc(=O)n2n1 (stereo not drawn) [compound 71]
Laodelphax striatellus
  insect death ratio: ≥ 70%
Myzus persicae
  insect death ratio: ≥ 70%

## CSc1cc2n(Cc3cnc(Cl)c(F)c3)c(C)cc(=O)n2n1 [compound 307]
Laodelphax striatellus
  insect death ratio: ≥ 70%
Myzus persicae
  insect death ratio: ≥ 70%

## CO/N=c1\cc(C)n(Cc2ccc(Cl)nc2)c2cc(SC)nn12 [compound 240]
Laodelphax striatellus
  insect death ratio: ≥ 70%
Myzus persicae
  insect death ratio: ≥ 70%

## CSc1cc2n(Cc3cnc(C)c(F)c3)c(C)cc(=O)n2n1 [compound 317]
Laodelphax striatellus
  insect death ratio: ≥ 70%
Myzus persicae
  insect death ratio: ≥ 70%

## O=c1ccn(Cc2ccc(Cl)nc2)c2ccnn12 [compound 151]
Laodelphax striatellus
  insect death ratio: ≥ 70%
Myzus persicae
  insect death ratio: ≥ 70%

## CCCCOc1nc2n(Cc3ccc(Cl)nc3)c(C)cc(=O)n2n1 [compound 113]
Laodelphax striatellus
  insect death ratio: ≥ 70%
Myzus persicae
  insect death ratio: ≥ 70%

## CC[S+]([O-])c1nc2n(Cc3ccc(Cl)nc3)c(C)cc(=O)n2n1 (stereo not drawn) [compound 188]
Laodelphax striatellus
  insect death ratio: ≥ 70%
Myzus persicae
  insect death ratio: ≥ 70%

## Cc1cc(=O)n2nc(SCC(F)(F)F)nc2n1Cc1ccc(Cl)nc1 [compound 58]
Laodelphax striatellus
  insect death ratio: ≥ 70%
Myzus persicae
  insect death ratio: ≥ 70%

## Cc1cc(=O)n2nc(Cl)cc2n1Cc1ccc(Cl)nc1 [compound 323, 4-((6-chloropyridin-3-yl)methyl)-2-chloro-5-methylpyrazolo[1,5-a]pyrimidin-7(4H)-one]
Laodelphax striatellus
  insect death ratio: ≥ 70%
Myzus persicae
  insect death ratio: ≥ 70%

## Cc1cc(=O)n2nc(C(F)(F)F)cc2n1Cc1cnc(Cl)s1 [compound 162]
Laodelphax striatellus
  insect death ratio: ≥ 70%
Myzus persicae
  insect death ratio: ≥ 70%

## Cc1cc(=O)n2nccc2n1Cc1ccc(Cl)nc1 [compound 153, 4-((6-chloropyridin-3-yl)methyl)-5-methylpyrazolo[1,5-a]pyrimidin-7(4H)-one]
Laodelphax striatellus
  insect death ratio: ≥ 70%
Myzus persicae
  insect death ratio: ≥ 70%

## CSc1cc2n(Cc3ccc(Cl)nc3)ccc(=O)n2n1 [compound 218]
Laodelphax striatellus
  insect death ratio: ≥ 70%
Myzus persicae
  insect death ratio: ≥ 70%

## CSc1cc2n(Cc3cnc(Cl)s3)c(C)cc(=O)n2n1 [compound 177]
Laodelphax striatellus
  insect death ratio: ≥ 70%
Myzus persicae
  insect death ratio: ≥ 70%

## CSc1cc2n(Cc3cnc(Cl)c(Cl)c3)c(C)cc(=O)n2n1 [compound 214]
Laodelphax striatellus
  insect death ratio: ≥ 70%
Myzus persicae
  insect death ratio: ≥ 70%

## COCc1nc2n(Cc3ccc(Cl)nc3)c(C)cc(=O)n2n1 [compound 33]
Laodelphax striatellus
  insect death ratio: ≥ 70%
Myzus persicae
  insect death ratio: ≥ 70%

## Cc1cc(=O)n2nc(S(=O)(=O)C(C)C)cc2n1Cc1ccc(Cl)nc1 [compound 257]
Laodelphax striatellus
  insect death ratio: ≥ 70%
Myzus persicae
  insect death ratio: ≥ 70%

## Cc1cc(=O)n2nc(OS(C)(=O)=O)nc2n1Cc1ccc(Cl)nc1 [compound 91]
Laodelphax striatellus
  insect death ratio: ≥ 70%
Myzus persicae
  insect death ratio: ≥ 70%

## Cc1cc(=O)n2ncnc2n1Cc1ccc(Cl)nc1 [compound 4]
Laodelphax striatellus
  insect death ratio: ≥ 70%
Myzus persicae
  insect death ratio: ≥ 70%

## Cc1cc(=O)n2nc(OC(F)F)cc2n1Cc1ccc(Cl)nc1 [compound 327, 4-((6-chloropyridin-3-yl)methyl)-2-difluoromethoxy-5-methylpyrazolo[1,5-a]pyrimidin-7(4H)-one]
Laodelphax striatellus
  insect death ratio: ≥ 70%
Myzus persicae
  insect death ratio: ≥ 70%

## CSc1cc2n(Cc3cnc(Cl)c(Br)c3)c(C)cc(=O)n2n1 [compound 309]
Laodelphax striatellus
  insect death ratio: ≥ 70%
Myzus persicae
  insect death ratio: ≥ 70%

## CCSc1cc2n(Cc3cnc(Cl)cc3Cl)c(C)cc(=O)n2n1 [compound 249]
Laodelphax striatellus
  insect death ratio: ≥ 70%
Myzus persicae
  insect death ratio: ≥ 70%

## CCCOc1cc2n(Cc3ccc(Cl)nc3)c(C)cc(=O)n2n1 [compound 326]
Laodelphax striatellus
  insect death ratio: ≥ 70%
Myzus persicae
  insect death ratio: ≥ 70%

## CN/N=c1\cc(C)n(Cc2ccc(Cl)nc2)c2nc(SC)nn12 [compound 185]
Laodelphax striatellus
  insect death ratio: ≥ 70%
Myzus persicae
  insect death ratio: ≥ 70%

## CSc1cc2n(Cc3cnc(Cl)nc3)c(C)cc(=O)n2n1 [compound 299]
Laodelphax striatellus
  insect death ratio: ≥ 70%
Myzus persicae
  insect death ratio: ≥ 70%

## O=c1ccn(Cc2ccc(Cl)nc2)c2nc(C(F)(F)F)nn12 [compound 201]
Laodelphax striatellus
  insect death ratio: ≥ 70%
Myzus persicae
  insect death ratio: ≥ 70%

## C[S+]([O-])c1cc2n(Cc3ccc(Cl)nc3)ccc(=O)n2n1 (stereo not drawn) [compound 231]
Laodelphax striatellus
  insect death ratio: ≥ 70%
Myzus persicae
  insect death ratio: ≥ 70%

## CSc1cc2n(Cc3ccc(Br)nc3)c(C)cc(=O)n2n1 [compound 300]
Laodelphax striatellus
  insect death ratio: ≥ 70%
Myzus persicae
  insect death ratio: ≥ 70%

## CSc1nc2n(Cc3cnc(Cl)cc3F)c(C)cc(=O)n2n1 [compound 333]
Laodelphax striatellus
  insect death ratio: ≥ 70%
Myzus persicae
  insect death ratio: ≥ 70%

## COc1cc2n(Cc3ccc(Cl)nc3)c(C)cc(=O)n2n1 [compound 166]
Laodelphax striatellus
  insect death ratio: ≥ 70%
Myzus persicae
  insect death ratio: ≥ 70%

## O=c1ccn(Cc2ccc(Cl)nc2)c2ncnn12 [compound 195]
Laodelphax striatellus
  insect death ratio: ≥ 70%
Myzus persicae
  insect death ratio: ≥ 70%

## CCCCS(=O)(=O)c1cc2n(Cc3ccc(Cl)nc3)c(C)cc(=O)n2n1 [compound 341]
Laodelphax striatellus
  insect death ratio: ≥ 70%
Myzus persicae
  insect death ratio: ≥ 70%

## Cc1cc(=O)n2nc(Oc3cccnc3)nc2n1Cc1ccc(Cl)nc1 [compound 69]
Laodelphax striatellus
  insect death ratio: ≥ 70%
Myzus persicae
  insect death ratio: ≥ 70%

## CCCSc1cc2n(Cc3ccc(Cl)nc3)c(C)cc(=O)n2n1 [compound 263]
Laodelphax striatellus
  insect death ratio: ≥ 70%
Myzus persicae
  insect death ratio: ≥ 70%

## CSc1cc2n(Cc3cnc(Br)c(F)c3)c(C)cc(=O)n2n1 [compound 311]
Laodelphax striatellus
  insect death ratio: ≥ 70%
Myzus persicae
  insect death ratio: ≥ 70%

## Cc1cc(=O)n2nnnc2n1Cc1cnc(Cl)s1 [compound 179]
Laodelphax striatellus
  insect death ratio: ≥ 70%
Myzus persicae
  insect death ratio: ≥ 70%

## CCSc1cc2n(Cc3ccc(Br)nc3)c(C)cc(=O)n2n1 [compound 247]
Laodelphax striatellus
  insect death ratio: ≥ 70%
Myzus persicae
  insect death ratio: ≥ 70%

## Cc1cc(=O)n2nc(OC(F)(F)F)cc2n1Cc1ccc(Cl)nc1 [compound 330, 4-((6-chloropyridin-3-yl)methyl)-2-trifluoromethoxy-5-methylpyrazolo[1,5-a]pyrimidin-7(4H)-one]
Laodelphax striatellus
  insect death ratio: ≥ 70%
Myzus persicae
  insect death ratio: ≥ 70%

## Cc1cc(=O)n2nc([S+](C)[O-])cc2n1Cc1ccc(Cl)nc1 (stereo not drawn) [compound 160]
Laodelphax striatellus
  insect death ratio: ≥ 70%
Myzus persicae
  insect death ratio: ≥ 70%

## CSc1nc2n(Cc3ccc(Cl)nc3)c(C3CC3)cc(=O)n2n1 [compound 19]
Laodelphax striatellus
  insect death ratio: ≥ 70%
Myzus persicae
  insect death ratio: ≥ 70%

## CSc1nc2n(Cc3ccc(F)nc3)c(C)cc(=O)n2n1 [compound 50]
Laodelphax striatellus
  insect death ratio: ≥ 70%
Myzus persicae
  insect death ratio: ≥ 70%

## Cc1cc(=O)n2nnnc2n1Cc1ccc(Cl)nc1 [compound 178]
Laodelphax striatellus
  insect death ratio: ≥ 70%
Myzus persicae
  insect death ratio: ≥ 70%

## Cc1cc(=O)n2nc(C(F)(F)F)nc2n1Cc1ccc(Cl)nc1 [compound 32]
Laodelphax striatellus
  insect death ratio: ≥ 70%
Myzus persicae
  insect death ratio: ≥ 70%
